Test results published in publication PMC7862700.
Only a part is listed here, and it is no random draw. For part of these data: At the low end of the ranking the order means little. Some of the results follow. For part of these data: The source does not settle which construct or isoform was used.

Chains of the proteins cited; added tags and fusions are not shown. Lines headed by an entry give the natural chain unless they say otherwise; changes in a name come on top.
UniProt P32519: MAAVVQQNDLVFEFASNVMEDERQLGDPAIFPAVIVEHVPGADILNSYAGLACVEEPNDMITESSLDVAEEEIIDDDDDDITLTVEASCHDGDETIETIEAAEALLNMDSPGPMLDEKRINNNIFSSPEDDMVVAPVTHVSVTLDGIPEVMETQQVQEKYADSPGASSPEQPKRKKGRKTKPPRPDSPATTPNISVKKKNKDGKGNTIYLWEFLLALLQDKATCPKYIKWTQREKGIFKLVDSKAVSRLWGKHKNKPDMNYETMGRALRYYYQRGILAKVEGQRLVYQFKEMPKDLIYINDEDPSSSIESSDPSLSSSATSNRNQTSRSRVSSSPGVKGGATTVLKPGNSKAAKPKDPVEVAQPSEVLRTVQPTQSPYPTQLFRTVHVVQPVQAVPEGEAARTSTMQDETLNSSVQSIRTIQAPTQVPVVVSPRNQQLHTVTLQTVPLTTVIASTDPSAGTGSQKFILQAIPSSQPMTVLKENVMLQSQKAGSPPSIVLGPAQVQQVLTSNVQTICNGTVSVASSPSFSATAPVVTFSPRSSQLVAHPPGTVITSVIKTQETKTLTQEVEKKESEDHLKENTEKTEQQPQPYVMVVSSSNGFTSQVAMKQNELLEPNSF
UniProt P50549: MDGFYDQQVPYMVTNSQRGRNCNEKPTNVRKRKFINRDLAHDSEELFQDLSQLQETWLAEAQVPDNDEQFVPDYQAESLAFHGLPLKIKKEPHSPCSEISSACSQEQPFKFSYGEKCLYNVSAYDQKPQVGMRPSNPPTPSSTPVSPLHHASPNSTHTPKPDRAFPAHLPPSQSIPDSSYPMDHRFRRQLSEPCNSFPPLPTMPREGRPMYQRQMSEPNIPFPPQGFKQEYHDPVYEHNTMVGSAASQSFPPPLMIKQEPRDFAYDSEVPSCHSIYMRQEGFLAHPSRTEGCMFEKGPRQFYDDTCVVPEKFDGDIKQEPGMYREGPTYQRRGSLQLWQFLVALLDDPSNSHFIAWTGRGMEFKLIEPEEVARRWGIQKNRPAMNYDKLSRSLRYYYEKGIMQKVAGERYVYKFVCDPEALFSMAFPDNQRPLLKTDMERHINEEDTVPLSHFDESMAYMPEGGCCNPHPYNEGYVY

What was measured:
Test in all cases: DAPPL (digital affinity profiling via proximity ligation, sequencing)
Conditions in all cases: 10 mM Tris-HCl pH 7.5, 50 mM NaCl, 1 mM DTT, 4% glycerol, room temperature, 30 min; GST-TFs on glutathione beads, 16-mer random dsDNA library, 0.1% …; high values mean tight binding; double strand, one strand shown; scale: fold enrichment (6-mer frequency, TF over GST control)
[1] = target: T1, ERG (UniProt P11308)
T1 sequence: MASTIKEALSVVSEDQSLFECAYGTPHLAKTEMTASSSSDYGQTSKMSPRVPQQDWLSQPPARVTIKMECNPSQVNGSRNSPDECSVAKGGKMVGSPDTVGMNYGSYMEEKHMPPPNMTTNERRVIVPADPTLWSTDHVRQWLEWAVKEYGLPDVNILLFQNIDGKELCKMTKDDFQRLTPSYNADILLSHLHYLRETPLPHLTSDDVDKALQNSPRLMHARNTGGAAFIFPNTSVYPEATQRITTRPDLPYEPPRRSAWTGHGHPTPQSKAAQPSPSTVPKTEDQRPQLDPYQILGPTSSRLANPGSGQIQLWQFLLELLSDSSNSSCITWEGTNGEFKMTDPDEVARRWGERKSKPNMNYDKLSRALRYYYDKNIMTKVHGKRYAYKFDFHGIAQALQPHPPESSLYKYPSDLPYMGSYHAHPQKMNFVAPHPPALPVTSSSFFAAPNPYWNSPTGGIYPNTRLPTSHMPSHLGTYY

[2] = target: ELF1 (UniProt P32519)
[3] = target: T2, ELK4 (UniProt P28324-2)
T2 sequence: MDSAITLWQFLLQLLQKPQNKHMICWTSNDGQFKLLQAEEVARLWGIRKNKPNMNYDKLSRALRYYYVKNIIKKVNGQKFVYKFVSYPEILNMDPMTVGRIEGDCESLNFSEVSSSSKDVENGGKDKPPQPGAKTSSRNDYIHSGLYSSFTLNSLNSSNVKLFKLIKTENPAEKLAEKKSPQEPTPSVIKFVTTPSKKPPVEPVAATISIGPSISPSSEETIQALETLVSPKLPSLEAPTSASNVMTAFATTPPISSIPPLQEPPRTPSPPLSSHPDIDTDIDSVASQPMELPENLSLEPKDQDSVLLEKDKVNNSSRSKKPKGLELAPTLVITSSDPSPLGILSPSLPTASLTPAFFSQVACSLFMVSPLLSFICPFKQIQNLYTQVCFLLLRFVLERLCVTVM

[4] = target: T3, ETV4 (UniProt P43268)
T3 sequence: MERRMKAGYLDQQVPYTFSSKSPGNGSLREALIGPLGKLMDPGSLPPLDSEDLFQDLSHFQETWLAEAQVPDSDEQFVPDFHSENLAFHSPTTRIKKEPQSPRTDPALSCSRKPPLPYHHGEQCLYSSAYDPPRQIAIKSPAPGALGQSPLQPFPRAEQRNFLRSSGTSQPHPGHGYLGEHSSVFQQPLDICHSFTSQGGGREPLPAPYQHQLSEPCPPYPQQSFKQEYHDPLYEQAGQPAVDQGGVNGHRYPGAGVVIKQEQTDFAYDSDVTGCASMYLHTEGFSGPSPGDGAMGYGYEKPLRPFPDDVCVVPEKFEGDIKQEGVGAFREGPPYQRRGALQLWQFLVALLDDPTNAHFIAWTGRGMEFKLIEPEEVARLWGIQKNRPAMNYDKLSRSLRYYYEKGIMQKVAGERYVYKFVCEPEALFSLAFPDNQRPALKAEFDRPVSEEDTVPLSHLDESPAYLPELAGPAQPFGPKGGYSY

[5] = target: ETV1 (UniProt P50549)
[6] = target: T4, ERF (UniProt P50548)
T4 sequence: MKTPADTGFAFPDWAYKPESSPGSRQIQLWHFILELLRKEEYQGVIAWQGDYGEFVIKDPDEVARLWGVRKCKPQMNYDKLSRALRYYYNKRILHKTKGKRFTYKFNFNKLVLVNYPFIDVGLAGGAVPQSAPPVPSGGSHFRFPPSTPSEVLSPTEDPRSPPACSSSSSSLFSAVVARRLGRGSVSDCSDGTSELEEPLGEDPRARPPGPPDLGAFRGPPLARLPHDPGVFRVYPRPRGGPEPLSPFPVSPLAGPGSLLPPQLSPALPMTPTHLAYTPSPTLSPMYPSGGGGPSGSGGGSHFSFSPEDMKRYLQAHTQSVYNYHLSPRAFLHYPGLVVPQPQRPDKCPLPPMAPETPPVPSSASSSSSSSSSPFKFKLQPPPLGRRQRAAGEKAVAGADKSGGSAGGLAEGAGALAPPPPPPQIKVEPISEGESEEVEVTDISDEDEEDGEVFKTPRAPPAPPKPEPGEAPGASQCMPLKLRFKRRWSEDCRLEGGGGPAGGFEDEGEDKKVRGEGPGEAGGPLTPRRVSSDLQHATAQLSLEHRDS

Row | Sequence | binding signal [1] | binding signal [2] | binding signal [3] | binding signal [4] | binding signal [5] | binding signal [6]
1 | TCGTTA | 0.901 | 0.973 | 0.917 | 0.987 | 0.824 | 0.947
2 | AGAGCT | 0.921 | 0.986 | 0.95 | 0.934 | 0.923 | 0.956
3 | GCCGTC | 0.98 | 1.02 | 1.1 | 0.921 | 0.913 | 0.872
4 | CAGAAG | 0.741 | 0.737 | 0.863 | 0.78 | 0.727 | 0.762
5 | GTAGAA | 0.89 | 0.982 | 0.964 | 0.961 | 0.941 | 0.918
6 | CGAGGT | 0.982 | 0.944 | 1.06 | 0.98 | 0.965 | 0.983
7 | GTGATG | 0.943 | 0.993 | 1.18 | 0.966 | 1.03 | 0.889
8 | GTCACC | 0.936 | 0.927 | 0.849 | 1.02 | 0.929 | 0.753
9 | GATAAC | 0.908 | 0.955 | 0.926 | 0.954 | 0.906 | 0.893
10 | GGTTAA | 0.82 | 0.891 | 0.928 | 0.865 | 0.814 | 0.814
11 | GCAAAG | 0.932 | 0.962 | 0.998 | 0.913 | 0.975 | 0.971
12 | GATAAG | 0.859 | 0.914 | 0.861 | 0.932 | 0.959 | 0.916
13 | GTTTAG | 0.895 | 0.852 | 0.902 | 0.861 | 0.925 | 0.974
14 | GGTCAC | 1.01 | 0.975 | 0.908 | 0.987 | 1.02 | 0.961
15 | GACCCA | 0.873 | 0.94 | 0.917 | 0.934 | 0.71 | 0.819
16 | AAGGTC | 0.886 | 0.895 | 0.92 | 0.942 | 0.943 | 0.929
17 | TAAGTC | 0.862 | 0.897 | 0.817 | 0.844 | 0.897 | 0.901
18 | TTAGAG | 0.83 | 0.914 | 0.854 | 0.822 | 0.84 | 0.934
19 | CGGCAA | 0.933 | 0.922 | 0.801 | 0.952 | 0.92 | 0.967
20 | TTAGGA | 0.888 | 0.918 | 0.945 | 0.913 | 0.911 | 0.996
21 | AGAATG | 0.99 | 0.985 | 0.894 | 0.982 | 0.912 | 0.959
22 | CGAGAA | 0.856 | 0.829 | 0.767 | 0.927 | 0.849 | 0.882
23 | GTAAGC | 0.933 | 0.932 | 0.983 | 0.902 | 0.925 | 0.874
24 | AGTGTA | 0.984 | 0.984 | 0.893 | 1.1 | 0.936 | 0.984
25 | GACTAT | 0.953 | 0.954 | 0.884 | 0.999 | 0.894 | 0.982
26 | TAAGAC | 0.917 | 0.904 | 0.865 | 0.893 | 0.818 | 0.856

Retrieved one by one from the entries so far (2):
Row | Sequence | binding signal [1] | binding signal [2] | binding signal [3] | binding signal [4] | binding signal [5] | binding signal [6]
9 | GATAAC | 0.908 | 0.955 | 0.926 | 0.954 | 0.906 | 0.893
3 | GCCGTC | 0.98 | 1.02 | 1.1 | 0.921 | 0.913 | 0.872

Continued:

Row | Sequence | binding signal [1] | binding signal [2] | binding signal [3] | binding signal [4] | binding signal [5] | binding signal [6]
27 | GATAGT | 0.824 | 0.833 | 0.808 | 0.855 | 0.844 | 0.862
28 | TCGAAG | 0.787 | 0.905 | 0.909 | 0.912 | 0.918 | 0.963
29 | GGTTGT | 0.843 | 0.896 | 0.979 | 0.946 | 0.882 | 0.877
30 | TTAGTG | 0.784 | 0.922 | 1.11 | 0.871 | 0.85 | 0.702
31 | AGATGG | 0.913 | 0.891 | 0.957 | 0.873 | 0.796 | 0.996
32 | CAGAAA | 0.898 | 0.942 | 0.885 | 0.901 | 0.92 | 0.939
33 | GACTTA | 0.93 | 0.955 | 1 | 0.938 | 0.891 | 0.994
34 | GGATTC | 0.906 | 0.965 | 0.976 | 0.871 | 0.907 | 0.914
35 | TAAGGA | 0.868 | 0.865 | 0.78 | 0.842 | 0.855 | 0.815
36 | AGCTTG | 0.892 | 0.991 | 0.898 | 0.965 | 0.932 | 0.96
37 | GAATGG | 0.966 | 0.986 | 0.991 | 1 | 0.918 | 0.909
38 | GCATTA | 0.809 | 0.856 | 0.901 | 0.82 | 0.853 | 0.832
39 | CCGCGG | 0.958 | 0.843 | 0.77 | 0.887 | 0.948 | 0.869
40 | CGAGAT | 0.855 | 0.915 | 0.862 | 0.891 | 0.942 | 0.91
41 | TGCGGT | 0.927 | 0.911 | 0.893 | 1.04 | 0.907 | 0.875
42 | AGGGAT | 0.791 | 0.749 | 0.697 | 0.799 | 0.825 | 0.818
43 | GTGCAC | 0.886 | 0.95 | 0.918 | 0.973 | 0.905 | 0.994
44 | AGCAGA | 0.881 | 0.923 | 0.882 | 0.891 | 0.887 | 0.872
45 | GTTCAG | 0.869 | 0.873 | 0.849 | 0.879 | 0.838 | 0.827
46 | TGTCAG | 0.926 | 0.895 | 1.02 | 0.938 | 0.9 | 0.938
47 | CGTTTG | 0.887 | 0.992 | 1.07 | 1.11 | 1.06 | 0.951
48 | GCCAGA | 0.695 | 0.645 | 0.746 | 0.652 | 0.713 | 0.61
49 | CGCTAA | 0.94 | 0.93 | 0.908 | 0.912 | 0.857 | 0.986
50 | CGCAAT | 0.898 | 0.937 | 1 | 0.906 | 0.984 | 0.958
51 | AGTACG | 0.92 | 0.838 | 0.873 | 0.89 | 0.839 | 0.785
